Data taken from paper PMC11001723.

Amino acid sequences for entries named in this document (tags omitted).
UniProt P28741: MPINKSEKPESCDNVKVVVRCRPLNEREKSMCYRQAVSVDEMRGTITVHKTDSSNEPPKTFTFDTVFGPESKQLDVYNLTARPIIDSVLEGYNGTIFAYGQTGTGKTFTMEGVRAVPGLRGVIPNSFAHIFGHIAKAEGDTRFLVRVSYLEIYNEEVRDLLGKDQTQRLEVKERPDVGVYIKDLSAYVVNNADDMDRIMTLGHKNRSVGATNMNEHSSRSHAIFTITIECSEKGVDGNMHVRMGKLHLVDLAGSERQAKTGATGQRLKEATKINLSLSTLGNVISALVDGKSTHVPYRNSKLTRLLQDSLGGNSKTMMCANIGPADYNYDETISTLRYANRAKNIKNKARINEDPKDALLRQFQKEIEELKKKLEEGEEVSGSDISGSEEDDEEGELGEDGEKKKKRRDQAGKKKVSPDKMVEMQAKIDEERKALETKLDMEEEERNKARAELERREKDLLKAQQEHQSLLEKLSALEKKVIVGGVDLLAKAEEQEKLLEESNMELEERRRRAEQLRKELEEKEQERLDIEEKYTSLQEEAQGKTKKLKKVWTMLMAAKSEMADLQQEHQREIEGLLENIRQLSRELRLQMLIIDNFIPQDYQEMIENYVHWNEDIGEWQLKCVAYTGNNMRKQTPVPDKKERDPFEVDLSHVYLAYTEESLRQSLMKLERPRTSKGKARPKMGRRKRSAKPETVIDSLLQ

Biological target: Kinesin family member 3A (mouse (endogenous in ovary)) (UniProt P28741)
Experiment: affinity purification with mass spectrometry; rabbit anti-KIF3A antibody on Dynabeads Protein G, incubated with lysate of 6 mouse ovaries for 6 h at 4 °C; eluate analysed by LC-MS (Mascot search)

binding: binds
B1: CDC37 (protein, UniProt Q61081 1-379)
chain: MVDYSVWDHIEVSDDEDETHPNIDTASLFRWRHQARVERMEQFQKEKEELDRGCRECKRKVAECQRKLKELEVAESDGQVELERLRAEAQQLRKEERSWEQKLEDMRKKEKNMPWNVDTLSKDGFSKSMVNTKPEKAEEDSEEAREQKHKTFVEKYEKQIKHFGMLHRWDDSQKYLSDNVHLVCEETANYLVIWCIDLEVEEKCALMEQVAHQTMVMQFILELAKSLKVDPRACFRQFFTKIKTADHQYMEGFKYELEAFKERVRGRAKLRIEKAMKEYEEEERKKRLGPGGLDPVEVYESLPEELQKCFDVKDVQMLQDAISKMDPTDAKYHMQRCIDSGLWVPNSKSGEAKEGEEAGPGDPLLEAVPKAGNEKDVSA

binding: binds
B2: KIFC1 (protein, UniProt Q9QWT9 1-674)
chain: MDVQAQRPPLLEVKRNVELKAALVKSSSRVPLSASRLKRGPDQMEDALEPAKKRTRVMGAVTKVDTSRPRGPLLSTVSQTQGHTAAQKGPKKTGPRGCSAIGTVLRSQKPVPAAPAQKPGTSTAPVVVGKRAGKRPAWDLKGQLCDLNEELKRYREKTQTLELENRGLREQLREVQEQATTLGTERNTLEGELASVRSRAEQDQQRLETLSARVLELEECLGTRERLLQELQGERLQLQEERSTLSTQLEEQERRFQATEAALSSSQEEVVCLRQKTEAQVTLLAEQGDRLYGLEMERRRLHNQLQELKGNIRVFCRVRPVLEGESTPSPGFLVFPPGPAGPSDPPTGLSLSRSDDRRSTLTGAPAPTVRHDFSFDRVFPPGSKQEEVFEEIAMLVQSALDGYPVCIFAYGQTGSGKTFTMEGGPRGDPQLEGLIPRAMRHLFSVAQEMSGQGWTYSFVASYVEIYNETVRDLLATGPRKGQGGECEIRRASPGSEELTVTNARYVPVSCEKEVEALLHLAHQNRAVAHTAQNKRSSRSHSVFQLQISGEHAARGLQCGAPLNLVDLAGSERLDPGLHLGPGERDRLRETQAINSSLSTLGLVIMALSNKESHVPYRNSKLTYLLQNSLGGSAKMLMFVNISPLEENVSESLNSLRFASKVNQCVIGTAQANKK

Results are given in words; binding and its absence hold for the method and conditions named. Binding seen in cells or lysates may run through a third protein. Here binding means that the protein was enriched with, or labelled near, the bait; the list need not be complete. One block for each binder: values may come before it.
